# Experimental data taken from patent US20240174765A1 (ACADEMIA SINICA, published 2024).
# Chains of the proteins cited; added tags and fusions are not shown. Residues count along the entry.
# UniProt P08581, residues 25-1390: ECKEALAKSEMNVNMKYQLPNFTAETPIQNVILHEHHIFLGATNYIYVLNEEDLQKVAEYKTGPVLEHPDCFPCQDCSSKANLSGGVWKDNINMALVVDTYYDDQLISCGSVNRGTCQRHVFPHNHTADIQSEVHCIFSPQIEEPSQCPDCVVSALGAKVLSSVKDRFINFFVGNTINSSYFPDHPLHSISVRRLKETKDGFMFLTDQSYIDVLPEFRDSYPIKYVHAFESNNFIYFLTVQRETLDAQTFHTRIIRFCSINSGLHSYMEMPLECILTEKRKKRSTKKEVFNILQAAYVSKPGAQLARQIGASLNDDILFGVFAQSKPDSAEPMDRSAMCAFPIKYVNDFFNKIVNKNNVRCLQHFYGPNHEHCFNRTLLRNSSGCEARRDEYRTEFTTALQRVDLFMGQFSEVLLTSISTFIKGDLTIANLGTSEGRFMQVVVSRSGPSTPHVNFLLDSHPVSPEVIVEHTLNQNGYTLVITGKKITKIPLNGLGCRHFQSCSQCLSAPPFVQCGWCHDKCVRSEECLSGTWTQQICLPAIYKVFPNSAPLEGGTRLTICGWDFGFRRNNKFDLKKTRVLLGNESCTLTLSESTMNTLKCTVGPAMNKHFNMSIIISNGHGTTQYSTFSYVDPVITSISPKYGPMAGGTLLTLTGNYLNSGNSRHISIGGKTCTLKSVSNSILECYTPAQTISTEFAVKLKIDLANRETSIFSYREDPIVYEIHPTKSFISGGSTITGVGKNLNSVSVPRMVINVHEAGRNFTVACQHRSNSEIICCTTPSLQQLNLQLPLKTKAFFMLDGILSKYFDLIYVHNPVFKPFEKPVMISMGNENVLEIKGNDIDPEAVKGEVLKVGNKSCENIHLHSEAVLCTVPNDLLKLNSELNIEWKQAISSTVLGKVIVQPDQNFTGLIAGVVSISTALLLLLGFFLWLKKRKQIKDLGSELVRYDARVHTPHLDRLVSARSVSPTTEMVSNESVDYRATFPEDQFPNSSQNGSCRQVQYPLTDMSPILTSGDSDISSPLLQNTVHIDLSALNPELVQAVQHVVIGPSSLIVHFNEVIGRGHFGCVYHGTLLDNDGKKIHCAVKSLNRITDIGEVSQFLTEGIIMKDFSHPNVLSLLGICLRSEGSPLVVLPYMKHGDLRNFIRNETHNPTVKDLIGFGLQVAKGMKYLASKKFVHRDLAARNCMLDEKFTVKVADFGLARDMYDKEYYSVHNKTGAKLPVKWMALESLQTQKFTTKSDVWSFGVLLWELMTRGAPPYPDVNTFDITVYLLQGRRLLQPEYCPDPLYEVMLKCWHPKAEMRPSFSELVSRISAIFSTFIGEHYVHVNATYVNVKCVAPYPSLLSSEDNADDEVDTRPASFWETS
# UniProt P06733: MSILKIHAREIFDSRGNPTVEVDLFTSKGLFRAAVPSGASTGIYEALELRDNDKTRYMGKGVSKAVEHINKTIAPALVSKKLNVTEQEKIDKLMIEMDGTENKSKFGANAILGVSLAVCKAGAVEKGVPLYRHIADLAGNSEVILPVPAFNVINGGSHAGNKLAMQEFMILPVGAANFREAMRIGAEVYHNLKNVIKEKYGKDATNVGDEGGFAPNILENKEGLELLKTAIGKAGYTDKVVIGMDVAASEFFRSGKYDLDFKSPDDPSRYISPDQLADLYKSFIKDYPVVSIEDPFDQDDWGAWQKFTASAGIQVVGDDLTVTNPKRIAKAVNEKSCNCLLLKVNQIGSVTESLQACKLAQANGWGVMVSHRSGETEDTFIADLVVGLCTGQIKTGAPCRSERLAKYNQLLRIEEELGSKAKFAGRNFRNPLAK
# No constants are given. Whether binding was seen depends on the method and setting. In cells and extracts the contact can be indirect. Some entries that bind do so weakly or less than the wild type.
# Biological target: hepatocyte growth factor receptor (HGFR), endogenous in CL1-5 cells (human) (UniProt P08581)
# Assay: co-IP from CL1-5 cells expressing FLAG-tagged ENO1
substance,measurement,value
FLAG-tagged ENO1 (from UniProt P06733 1-434) (enzyme),binding,binds
